# From patent publication US8729125B2, “Ophthalmic compositions and methods for treating eyes” (Allergan, Inc., priority 2004, dated 2014)
# For at least one compound, name, drawing or mass did not settle the structure.
# Tests used:
# p38 MAP Kinase = assay: Beadlyte Cell Signaling Assay, phospho:total p38 MAP kinase; type: cell-based, human; conditions: 2 mM, Beadlyte method, FIG. 4
# [1] = tested on: phosphorylated c-jun N-terminal kinases (p-JNK1 and p-JNK2); assay: Western blot of phosphorylated JNK1 and JNK2 in primary corneal epithelial cultures under hyperosmolar stress; type: cell-based, human; conditions: 2 mM, pre-added 60 minutes, 1 hour in 400 mOsmols/kg media
# JNK = assay: Beadlyte Cell Signaling Assay, phosphorylated:total JNK; type: cell-based, human; conditions: 2 mM, Beadlyte method, FIG. 3
# Protocol: A series of primary sub-confluent corneal epithelial cultures (grown for 12 to 14 days, about 4−5×10^5 cells/well) were washed three times with […] buffered saline (PBS) and switched to an Earle's Balanced Salt Solution (EBSS, 300 mOsmols/kg) for 24 hours before treatment. The corneal epithelial cells were cultured for 1 hour in an equal volume (2.0 mL/well) of EBSS media or 400 mOsmols/kg media by adding 53 mM NaCl or sucrose, with either L-carnitine inner salt, betaine hydrochloride, erythritol, or xylitol (all at a concentration of 2 mM) that were pre-added 60 minutes before adding NaCl or sucrose. Samples without these osmoprotectants were also prepared and tested.
# The adherent cells were lysed in Beadlyte® Buffer B (included in the Beadlyte® Cell Signaling buffer kit, Upstate Biotechnology, Lake Placid, N.Y.) containing an EDTA-free protease inhibitor cocktail tablet (Roche Applied Science, Indianapolis, Ind.) for 15 minutes. The cell extracts were centrifuged at 12,000×g for 15 minutes at room temperature and the supernatants were stored at −80° C. until they were analyzed by Western blot analysis. The total protein concentrations of the cell extracts were determined using a Micro BCA protein assay kit (Pierce, Rockford, Ill.).
# In another series of experiments, the Beadlyte® Cell Signaling Assay was used. This assay is a fluorescent bead-based sandwich immunoassay. […]
# corneal epithelial cells = assay: Trans-epithelial electrical resistance (TEER) of layered air-lift corneal epithelial cultures exposed to hypertonic fluid; type: cell-based, rabbit; conditions: different concentrations, TEER measured 0 to 24 hours, FIG. 6
# Description: In this experiment, corneal epithelial cells were isolated from the rabbit eye and grown under conditions so that they differentiate into a layered “air-lift” culture that includes basal, wing, and squamous cells. As they grow and differentiate, these cultures developed tight junctions between cells that provide the basis for a trans-epithelial electrical resistance (TEER) across the cell layers between the apical and basal surfaces. The TEER value is a sensitive measure of cell growth, differentiation and health.
# After 5 days in culture during which the layered structure forms, different culture wells were exposed to hypertonic fluid (400 mOsmols/kg) with or without addition of one of 6 candidate compatible solutes at a low concentration (2 mM). The TEER was then measured after 22 hours of exposure. The TEER value was expressed as a percentage of the TEER value obtained from a similar culture under isotonic (300 mOsmol/kg) conditions.
# Example 1 is repeated except that different concentrations of each of the candidate materials are used, and the TEER is measured at various times from 0 to 24 hours.
# As in Example 1, the TEER variable is represented as % TEER relative to the isotonic control.
# Example 4 was repeated except that compositions including combinations of compatible solutes were used. Compositions including only glycerol as a compatible solute were also tested.
smiles,measurement,setting,value
"C[N+](C)(C)CC(=O)O [Betaine, trimethyl glycine]",Amount of phospho-total p38 relative to the hypertonic control,p38 MAP Kinase,with the exception
same,"JNK activation (levels of p-JNK1 and p-JNK2, Western blot intensity) compared to 400 mOsmols/kg media alone",[1],definite decrease
same,Amount of phospho-total JNK relative to the hypertonic control,JNK,reduced
same,Concentration dependent effect on % TEER relative to the isotonic control,corneal epithelial cells,dose-related response
